Results reported in US20130130379A1 (published 2013).
No constants are given. Whether binding was seen depends on the method and setting. Some entries that bind do so weakly or less than the wild type.

Key:
[1] = target: T1, Human CXCR4 (human, UniProt P61073-2 2-356); test: shotgun mutagenesis epitope mapping
T1 construct: also called hCXCR4

[2] = target: T1, Human CXCR4; test: epitope mapping shown on a snake plot of human CXCR4

B1: 238D4 (VHH)
VHH: EVQLMESGGGLVQAGGSLRLSCAASGRTFNNYAMGWFRRAPGKEREFVAAITRSGVRSGVSAIYGDSVKDRFTISRDNAKNTLYLQMNSLKPEDTAVYTCAASAIGSGALRRFEYDYSGQGTQVTVSS
B1 was tested, and the binding [1] was “binds” and the binding [2] was “binds”.
